Results are given in words; binding and its absence hold for the method and conditions named. In cells and extracts the contact can be indirect. Some results given as binding are weak or reduced against the parent protein; the word gives no strength. Tags and fused reporters may be left off the sequences shown.
Molecular target: YAP1-Flag (human) (UniProt P46937)
Assay: co-IP; HEK-293T, HGC-27 and NCI-N87 cells co-transfected with the indicated plasmids, proteins extracted after 72 h, lysed with 1% NP-40; lysates incubated with anti-FLAG M2 magnetic beads, anti-Myc-tag magnetic beads or mouse IgG1 isotype control beads at 4 °C overnight; washed with 0.05% NP-40 thrice; Western blot

B1: SETD7-Myc (enzyme, UniProt Q8WTS6 1-366)
chain: MDSDDEMVEEAVEGHLDDDGLPHGFCTVTYSSTDRFEGNFVHGEKNGRGKFFFFDGSTLEGYYVDDALQGQGVYTYEDGGVLQGTYVDGELNGPAQEYDTDGRLIFKGQYKDNIRHGVCWIYYPDGGSLVGEVNEDGEMTGEKIAYVYPDERTALYGKFIDGEMIEGKLATLMSTEEGRPHFELMPGNSVYHFDKSTSSCISTNALLPDPYESERVYVAESLISSAGEGLFSKVAVGPNTVMSFYNGVRITHQEVDSRDWALNGNTLSLDEETVIDVPEPYNHVSKYCASLGHKANHSFTPNCIYDMFVHPRFGPIKCIRTLRAVEADEELTVAYGYDHSPPGKSGPEAPEWYQVELKAFQATQQK
  binding: binds
